Measurements as given in paper PMC11433124, “Novel Galectins Purified from the Sponge Chondrilla australiensis: Unique Structural Features and Cytotoxic Effects on Colorectal Cancer Cells Mediated by TF-Antigen Binding” (Marine Drugs, 2024).

The molecules below were run on T1, hRTL (assay: inhibition of hemagglutination (rabbit erythrocytes), two-fold dilutions). Settings: lectin titer 16; TBS, 0.01% Triton X-100, room temperature, 1 h.
T1 construct: gene hRTL-P1; native, purified from sponge on lactosyl-agarose; mature protein, N-terminal signal peptide (printed as 23 residues); 141 residues; N-terminus DYIEFES (major), EYVEVES (minor)
Type: cell-based, Chondrilla australiensis
Text: inhibition of hemagglutination (rabbit erythrocytes), two-fold dilutions on hRTL

| SMILES | Minimum Inhibitory Concentration [mM] |
| --- | --- |
| OC[C@H]1O[C@@H](O[C@H]2[C@H](O)[C@@H](O)C(O)O[C@@H]2CO)[C@H](O)[C@@H](O)[C@H]1O (some centres unmarked) [Lactose, Galβ1-4Glc] | 3.2 |
| OC[C@H]1O[C@H](OC[C@H]2OC(O)[C@H](O)[C@@H](O)[C@@H]2O)[C@H](O)[C@@H](O)[C@H]1O (some centres unmarked) [Melibiose, Galα1-6Glc] | 50 |
| OC[C@H]1OC(O)[C@H](O)[C@@H](O)[C@H]1O (stereo partly drawn) [D-galactose] | 25 |
| CC(=O)N[C@H]1C(O)O[C@H](CO)[C@H](O)[C@@H]1O[C@@H]1O[C@H](CO)[C@H](O)[C@H](O)[C@H]1O (some centres unmarked) [TF-antigen, Galβ1-3GalNAc] | 1.6 |
| CC(=O)N[C@H]1C(O)O[C@H](CO)[C@H](O)[C@@H]1O (stereo partly drawn) [D-GalNAc] | > 50 |
